Data as given in PubChem BioAssay AID1259405 (NCATS, 2018)
Test: 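Mouse-designed siRNAs used to find CHO productivity engineering targets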 (primary screen). System: Chinese hamster CHO-K1 ovary cells with stable secreted eGFP expression. Reagent: single siRNA against mouse genes, 0.8 pmol siRNA per well (2 µl of 400 nM stock). Duration: 3 days. Measurement: 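Percent of the per-plate non-targeting control median for intracellular GFP per well by laser scanning cytometry and for cell viability by ATP luminescence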. Scale: GFP, % of control: higher = more GFP per well, higher productivity; viability (ATP), % of control: higher = more viable cells (more ATP). Hit rule: 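a knock-down is called active if GFP reaches 120% or more of non-targeting control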.
The whole screen tested about 50,000 reagents; shown is a random part of them. About 4,000 of them (8%) were called active. 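Mouse siRNA library applied to hamster cells; one well for each siRNA.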 The numbers tell different reagents against one gene apart.

For Mmachc (methylmalonic aciduria cblC type, with homocystinuria) #1, how do the results read?
GFP, % of control: 54.9; viability (ATP), % of control: 80.5; activity call: inactive

For Mmachc (methylmalonic aciduria cblC type, with homocystinuria) #2, how do the results read?
GFP, % of control: 47; viability (ATP), % of control: 47.1; activity call: inactive

For Mmachc (methylmalonic aciduria cblC type, with homocystinuria) #3, what does the deposit list?
GFP, % of control: 78.3; viability (ATP), % of control: 75.7; activity call: inactive

What is on record for C1ql3 (C1q-like 3) #1?
GFP, % of control: 54.1; viability (ATP), % of control: 72.6; activity call: inactive

How did the screen score C1ql3 (C1q-like 3) #2?
GFP, % of control: 59.5; viability (ATP), % of control: 89.6; activity call: inactive

Which result is listed for C1ql3 (C1q-like 3) #3?
GFP, % of control: 22.5; viability (ATP), % of control: 45.8; activity call: inactive

With Socs6 (suppressor of cytokine signaling 6) #1, what does the deposit list?
GFP, % of control: 91.8; viability (ATP), % of control: 94.8; activity call: inactive

With Socs6 (suppressor of cytokine signaling 6) #2, how do the results read?
GFP, % of control: 52.6; viability (ATP), % of control: 69.1; activity call: inactive

For Socs6 (suppressor of cytokine signaling 6) #3, how do the results read?
GFP, % of control: 63; viability (ATP), % of control: 82.7; activity call: inactive

3 neighbouring entries from above, for reference:
Mmachc (methylmalonic aciduria cblC type, with homocystinuria) #2: GFP, % of control = 47; viability (ATP), % of control = 47.1; activity call = inactive
Mmachc (methylmalonic aciduria cblC type, with homocystinuria) #3: GFP, % of control = 78.3; viability (ATP), % of control = 75.7; activity call = inactive
C1ql3 (C1q-like 3) #1: GFP, % of control = 54.1; viability (ATP), % of control = 72.6; activity call = inactive

The results go on:
For Myl1 (myosin, light polypeptide 1) #1, what was measured?
GFP, % of control: 86.8; viability (ATP), % of control: 100; activity call: inactive

What did the screen give for Myl1 (myosin, light polypeptide 1) #2?
GFP, % of control: 79.1; viability (ATP), % of control: 85.1; activity call: inactive

Which result is listed for Srrt (serrate RNA effector molecule homolog (Arabidopsis)) #1?
GFP, % of control: 76.6; viability (ATP), % of control: 89.7; activity call: inactive

Which result is listed for Srrt (serrate RNA effector molecule homolog (Arabidopsis)) #2?
GFP, % of control: 65.2; viability (ATP), % of control: 80.7; activity call: inactive

What did the screen give for Srrt (serrate RNA effector molecule homolog (Arabidopsis)) #3?
GFP, % of control: 88.9; viability (ATP), % of control: 77.9; activity call: inactive

What did the screen give for Eif1 (eukaryotic translation initiation factor 1) #1?
GFP, % of control: 62.8; viability (ATP), % of control: 76.1; activity call: inactive

What is on record for Eif1 (eukaryotic translation initiation factor 1) #2?
GFP, % of control: 86.8; viability (ATP), % of control: 114; activity call: inactive

With Eif1 (eukaryotic translation initiation factor 1) #3, what was measured?
GFP, % of control: 102; viability (ATP), % of control: 95.8; activity call: inactive

Which result is listed for Il17d (interleukin 17D) #1?
GFP, % of control: 91.6; viability (ATP), % of control: 75.3; activity call: inactive

What is on record for Il17d (interleukin 17D) #2?
GFP, % of control: 55.3; viability (ATP), % of control: 63.1; activity call: inactive

How did the screen score Il17d (interleukin 17D) #3?
GFP, % of control: 53.1; viability (ATP), % of control: 71.2; activity call: inactive

Which result is listed for Dmkn (dermokine) #1?
GFP, % of control: 112; viability (ATP), % of control: 84.8; activity call: inactive

Which result is listed for Dmkn (dermokine) #2?
GFP, % of control: 78.9; viability (ATP), % of control: 78.8; activity call: inactive

For Dmkn (dermokine) #3, what does the deposit list?
GFP, % of control: 108; viability (ATP), % of control: 101; activity call: inactive

With Nek11 (NIMA (never in mitosis gene a)-related expressed kinase 11), what does the deposit list?
GFP, % of control: 85.3; viability (ATP), % of control: 69.6; activity call: inactive

With Rhof (ras homolog family member F (in filopodia)) #1, how do the results read?
GFP, % of control: 94.5; viability (ATP), % of control: 74.3; activity call: inactive

With Rhof (ras homolog family member F (in filopodia)) #2, what was measured?
GFP, % of control: 122; viability (ATP), % of control: 84.6; activity call: active

With Rhof (ras homolog family member F (in filopodia)) #3, what was measured?
GFP, % of control: 66.5; viability (ATP), % of control: 62.2; activity call: inactive
